PubChem BioAssay AID652272, Drosophila RNAi Screening Center – 2013

Test: 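Genes whose knock-down decreases or increases Hedgehog reporter output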 (primary screen)
Cell system: Drosophila clone 8 (Cl8) cells
Reagent: long dsRNA against Drosophila genes
Read-out: 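Plate reader light from a firefly reporter under a ptc promoter fragment that responds to Hedgehog, with Renilla light as transfection reference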
Reading the numbers: firefly Hh reporter signal: higher = more ptc reporter light; Renilla reference signal: higher = more Renilla control light
Active means: 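Called a hit if the two-replicate mean z-score lies below -2 or above +3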
Meaning of the calls: active = hit: reporter lowered or raised; inactive = not a hit
The screen tested about 21,000 reagents; shown is an unselected part of those with a known target gene and a result. Of all reagents, 503 (2.4%) are marked active. 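Raw plate light values, not normalised; calls rest on replicate z-scores that were not deposited; hits include reporter decreases as well as increases.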 Entries without a mark were called inactive. No sequences are given here. Not stated in the record: the amount of reagent, the time to read-out.

ex [DRSC00817] — firefly Hh reporter signal, replicate 1: 97664; firefly Hh reporter signal, replicate 2: 60578; Renilla reference signal, replicate 1: 4172; Renilla reference signal, replicate 2: 2394
salr [DRSC03607] — firefly Hh reporter signal, replicate 1: 73360; firefly Hh reporter signal, replicate 2: 72173; Renilla reference signal, replicate 1: 1843; Renilla reference signal, replicate 2: 6689
slmb [DRSC17056] — firefly Hh reporter signal, replicate 1: 1.34e5 (active); firefly Hh reporter signal, replicate 2: 1.12e5; Renilla reference signal, replicate 1: 3824; Renilla reference signal, replicate 2: 3377
Frq2 [DRSC20245] — firefly Hh reporter signal, replicate 1: 1.02e5; firefly Hh reporter signal, replicate 2: 3.74e5; Renilla reference signal, replicate 1: 3168; Renilla reference signal, replicate 2: 13372

2 consecutive records already listed, quoted:
slmb [DRSC17056] — firefly Hh reporter signal, replicate 1: 1.34e5 (active); firefly Hh reporter signal, replicate 2: 1.12e5; Renilla reference signal, replicate 1: 3824; Renilla reference signal, replicate 2: 3377
Frq2 [DRSC20245] — firefly Hh reporter signal, replicate 1: 1.02e5; firefly Hh reporter signal, replicate 2: 3.74e5; Renilla reference signal, replicate 1: 3168; Renilla reference signal, replicate 2: 13372

More reagents follow:
CG9308 [DRSC04539] — firefly Hh reporter signal, replicate 1: 95261; firefly Hh reporter signal, replicate 2: 52336; Renilla reference signal, replicate 1: 2508; Renilla reference signal, replicate 2: 4844
CG1677 [DRSC18116] — firefly Hh reporter signal, replicate 1: 74026; firefly Hh reporter signal, replicate 2: 2.94e5; Renilla reference signal, replicate 1: 2532; Renilla reference signal, replicate 2: 13049
CG5556 [DRSC00687] — firefly Hh reporter signal, replicate 1: 1.84e5; firefly Hh reporter signal, replicate 2: 1.17e5; Renilla reference signal, replicate 1: 4141; Renilla reference signal, replicate 2: 2962
CG3770 [DRSC04416] — firefly Hh reporter signal, replicate 1: 74336; firefly Hh reporter signal, replicate 2: 47987; Renilla reference signal, replicate 1: 3258; Renilla reference signal, replicate 2: 2349
CG43155 [DRSC19642] — firefly Hh reporter signal, replicate 1: 1.24e5; firefly Hh reporter signal, replicate 2: 2.54e5; Renilla reference signal, replicate 1: 5267; Renilla reference signal, replicate 2: 11607
CG43155 [DRSC19777] — firefly Hh reporter signal, replicate 1: 1.19e5; firefly Hh reporter signal, replicate 2: 2.72e5; Renilla reference signal, replicate 1: 4290; Renilla reference signal, replicate 2: 10509
Tpi [DRSC16888] — firefly Hh reporter signal, replicate 1: 61699; firefly Hh reporter signal, replicate 2: 67987; Renilla reference signal, replicate 1: 757; Renilla reference signal, replicate 2: 1968
dom [DRSC04558] — firefly Hh reporter signal, replicate 1: 79912; firefly Hh reporter signal, replicate 2: 54617; Renilla reference signal, replicate 1: 2435; Renilla reference signal, replicate 2: 1814
dom [DRSC04559] — firefly Hh reporter signal, replicate 1: 49136; firefly Hh reporter signal, replicate 2: 42816; Renilla reference signal, replicate 1: 1991; Renilla reference signal, replicate 2: 4787
CG13066 [DRSC09949] — firefly Hh reporter signal, replicate 1: 1.74e5; Renilla reference signal, replicate 1: 5868; Renilla reference signal, replicate 2: 5018
